Experimental findings from the supplement of paper PMC11732987, “Enantioselective OTUD7B fragment discovery through chemoproteomics screening and high-throughput optimisation” (Communications Chemistry, 2025) are described below.

This is one part of the list. The data scatter; read single values as rough.

The target of the first assay is ATP1A1 C211 (UniProt P05023). Nature of the assay: log2 mean competition ratio of IA-DTB cysteine labelling (DMSO/compound) (log2 ratio); higher = stronger cysteine engagement by compound. As to conditions: 50 µM; treatment time: 4 h; cell line lysate: HEK293T. As for the experimental part: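 IA-DTB competitive cysteine chemoproteomics in HEK293T RIPA lysate. Lysates were treated with compound 29 or 30 at 50 or 200 µM for 4 h, then IA-DTB (500 µM, 1 h), trypsin-digested, NeutrAvidin-enriched and analysed by diaPASEF. Competition ratio = intensity DMSO / intensity compound (n=4 treated, n=64 DMSO); binding: mean log2 CR ≥ 1 and p ≤ 0.05 plus QC filters. Target is the cysteine site.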
Take `O=C(CCl)N[C@H]1CCCc2ccccc21`: the “log2 mean competition ratio” value came to 0.598.

Regarding `O=C(CCl)N[C@@H]1CCCc2ccccc21`, the “log2 mean competition ratio” value was found to be 0.415.

Staying with this assay, now noted: 200 µM; treatment time: 4 h; cell line lysate: HEK293T.
As for `O=C(CCl)N[C@H]1CCCc2ccccc21`, the “log2 mean competition ratio” value was -0.0618.

`O=C(CCl)N[C@@H]1CCCc2ccccc21`: the “log2 mean competition ratio” value is -0.14.
